This is an account of results in PubChem BioAssay AID2685 (National Center for Advancing Translational Sciences (NCATS), 2010).

Values joined by “and” are separate entries in the source; they are usually repeats but may differ in a detail not shown here. Equal values may be shown once. The list shows a part of the results. Further columns of the screen follow, without active or inactive calls. Compounds called inactive in the main read-out are mostly missing here. Words in brackets tell the shape of the fitted curve; partial curves, single points and poor fits give uncertain potencies.

What is called AC50 is the concentration at which the activity in the assay is half-maximal. Read a high AC50 as weaker potency.

The nature of this test: qHTS Assay for Lipid Storage Modulators in Drosophila S3 Cells.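 On cell number change: cells counted by Cell Tracker Red CMTPX staining in the red channel.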 To be noted: BODIPY lipid droplet fluorescence, 18-24 h; for cell number change: measured here: cell count max response, cells fed with added oleic acid. Put shortly:
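Drosophila S3 cells loaded with oleic acid (400 uM, as added) and compounds at several concentrations; lipid droplets imaged by 488-nm laser-scanning cytometry, 500–530 nm intensity and object ratio to cell channel. Percent activity normalized to 20 uM Triacsin C.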
A general note: Quantitative high-throughput screening tests each substance at several concentrations.

Setting [1] is: measured here: lipid fluorescence (Fed channel) AC50, cells fed with added oleic acid.
The mark [2] stands for this setting: measured here: cell number channel AC50, cells fed with added oleic acid.

In the case of `Cc1cc(=O)oc2cc(OCC(=O)N3CC[C@@]4(O)CCCC[C@H]4C3)c(Cl)cc12`, the cell number change is -17.2%.
On to `O=C(COc1cc(Cl)c(Cl)cc1Cl)NC(=O)Nc1ccc2c(c1)OCCO2`, for which the cell number change is -12%. Moreover, the AC50 under setting [1] was 0.00517 µM [falling, full curve, poor fit].
Turning to `O=C1c2oc3ccccc3c(=O)c2C(c2cccnc2)N1Cc1ccco1` (stereo unspecified), the AC50 by setting is: under setting [2], 0.058 µM [rising, full curve, poor fit]; under setting [1], 0.0731 µM [rising, full curve, poor fit].
For the compound `CN(C)S(=O)(=O)c1ccc(NC(=O)N2CCN(c3ccccc3)CC2)cc1`, the cell number change was 171%. Also, the AC50 under setting [2] was 29.1 µM [rising, partial curve, poor fit].
Consider `O=C(O)/C=C\C(=O)Nc1ccc(N2CCN(c3cccc(Cl)c3)CC2)cc1`, for which the cell number change was -53.9%. For the same compound, the AC50 under setting [2] is 20.6 µM [falling, single point]. Further, the AC50 under setting [1] is 20.6 µM [falling, single point].
Turning to `COc1cc(N=Nc2c(O)c3ccccc3[nH]c2=O)c(OC)cc1N=Nc1ccccc1`, the cell number change was -43.9%. For the same compound, under setting [2], the AC50 was 0.0731 µM [falling, full curve, poor fit]. Further, the AC50 under setting [1] is 0.184 µM [falling, full curve, poor fit].
`CSc1nc2nccc(-c3ccc(-c4ccccc4)cc3)n2n1`: the cell number change worked out at 10.8%. Also, the AC50 under setting [2] was 0.731 µM [rising, full curve]. Also, the AC50 under setting [1] is 0.517 µM [rising, full curve].
Turning to `CCc1ccccc1S(=O)(=O)Cc1ccc(C(=O)NCc2ccc3c(c2)OCO3)o1`, the AC50 is, setting by setting: under setting [2], 0.0731 µM [rising, full curve, poor fit]; under setting [1], 0.103 µM [rising, full curve].
For the compound `COc1ccccc1-c1nnc2sc(COc3ccc(Cl)cc3)nn12`, the AC50 by setting is: under setting [2], 6.51 µM [rising, single point]; under setting [1], 5.8 µM [rising, single point].
With `O=C(CN1CCN(c2ncccn2)CC1)N1CCCC1`, the cell number change was found to be 1.12%. For the same compound, under setting [1], the AC50 was 1.46 µM [falling, partial curve].
Consider `O=C(CCNc1cccc(Cl)c1)c1ccco1`, for which the cell number change is 14%. Besides, under setting [1], the AC50 was 18.4 µM [rising, single point].
As for `Cc1c(NC(=O)C(C)OC(=O)/C=C/c2ccc(OC(F)F)cc2)c(=O)n(-c2ccccc2)n1C` (stereo unspecified), the cell number change stood at 8.5%.
Regarding `CCOC(=O)c1c(C)[nH]c2c1cc(O)c1ccccc12`, the cell number change was -8.6%. Besides, the AC50 under setting [1] was 8.2 µM [falling, partial curve, poor fit].
With `O=C(NC1CCCN(Cc2ccc(Cl)cc2)C1)c1ccccc1C(F)(F)F` (stereo unspecified), the cell number change was found to be 0.824%. For the same compound, the AC50 under setting [1] is 6.51 µM [rising, single point].
Consider `N#Cc1ccccc1OCC(=O)N1CCN(S(=O)(=O)c2ccc(Cl)cc2)CC1`, for which the cell number change came to 2.39%. For the same compound, the AC50 under setting [2] was 0.651 µM [falling, single point].
`CC1(C)Oc2ccc3ccc(=O)oc3c2-c2cn[nH]c21`: the cell number change worked out at 163%. The AC50 under setting [2] was 2.91 µM [rising, full curve]. For the same compound, under setting [1], the AC50 is 3.26 µM [rising, full curve].
On to `CC(C)OC(=O)C1C2C=CC3(CN(C(C)c4ccc(Br)cc4)C(=O)C13)O2` (stereo unspecified), for which the AC50 under setting [1] is 0.00461 µM [rising, full curve, poor fit].
`Cn1c2ccc(F)cc2c2ncn(CCN3CCOCC3)c(=O)c21`: the cell number change was 236%. Further, the AC50 under setting [2] is 16.4 µM [rising, partial curve]. Moreover, under setting [1], the AC50 is 6.51 µM [rising, partial curve].
With `O=C(Nc1nc(-c2cccnc2)cs1)c1ccc(S(=O)(=O)N2CCOCC2)cc1`, the cell number change is -14.3%.
As to `N/N=C/C(=N\Nc1ccc(Cl)cc1)C(=O)c1ccncc1`, the cell number change was -0.292%. Under setting [1], the AC50 was 0.184 µM [rising, full curve, poor fit].
Turning to `CC(=O)Oc1ccc(N(C(C)=O)S(=O)(=O)c2cccs2)cc1`, the AC50 under setting [2] is 6.51 µM [falling, single point].
As for `NNC(=O)CNc1cccc(Br)c1`, the cell number change was -5.6%. The AC50 under setting [1] was 20.6 µM [rising, single point].
Regarding `CCCn1cnc2cc(NCc3cccc(OC)c3)ccc21`, the cell number change came out at 144%. Under setting [2], the AC50 was 0.259 µM [rising, partial curve, poor fit].
As for `Cc1ccc(-n2cc(CNCCn3nc(C)cc3C)c(-c3ccc(F)cc3)n2)cc1`, the cell number change is -65.5%. In addition, the AC50 under setting [2] is 29.1 µM [falling, single point]. Under setting [1], the AC50 is 18.4 µM [falling, single point].
`COc1ccc2nc(C)cc(C(=O)O)c2c1`: the cell number change turned out to be 3.34%.
`CCOC(=O)N1CCC(N2Cc3cccc(C(=O)Nc4ccc(OC)c(OC)c4)c3C2=O)CC1`: the cell number change came to 23.3%. The AC50 under setting [1] was 0.00461 µM [rising, full curve, poor fit].
In the case of `C=CCN(C(=O)CSc1nc2[nH]ncc2c(=O)n1-c1ccccc1OC)c1ccccc1`, the cell number change was 7.92%. The AC50 under setting [1] is 4.11 µM [rising, full curve, poor fit].
Take `COc1cc2c(cc1OC)CN(CC(=O)Nc1ccc(C)c(C)c1)CC2`: the cell number change was 50%. The AC50 under setting [2] is 2.31 µM [rising, partial curve, poor fit].
Take `O=C(NC1=NCCS1)c1ccc(Cl)c(S(=O)(=O)N2CCCCC2)c1`: the cell number change stood at 132%. Moreover, the AC50 under setting [2] is 16.4 µM [rising, partial curve]. The AC50 under setting [1] was 18.4 µM [rising, partial curve].
As for `O=C(NCCSc1c[nH]c2ccccc12)c1ccc(Br)o1`, the cell number change was -19.4%. The AC50 under setting [1] is 23.1 µM [falling, single point].
Regarding `COC(=O)C1=C(C)N(Cc2ccccc2)C(=NCc2cc(OC)c(OC)c(OC)c2)N[C@H]1c1ccccc1`, the cell number change is 8.41% and -6.93%.
Still for that read-out and setting: for `CC1CCCCC1NC(=O)CSc1nnc(-c2ccncc2)n1CCCN(C)C` (stereo unspecified) the value was -10.5%.
On to `CC1CCN(C2=NC(=O)/C(=C/c3ccc(O)cc3)S2)CC1`, for which the cell number change is -24.4%. Also, the AC50 under setting [1] is 29.1 µM [falling, single point].
As to `COc1ccc2ccccc2c1C1CC(=O)N2CN(Cc3ccco3)CSC2=C1C#N` (stereo unspecified), the cell number change was found to be 14.8%.
On to `COc1ccc(CCNC(=O)C2CCN(S(=O)(=O)c3c(C)noc3C)CC2)cc1OC`, for which the cell number change amounted to 7.58%. The AC50 under setting [1] was 4.11 µM [falling, single point].
As to `C=CCc1cc(C=O)cc(OC)c1OCc1c(Cl)cccc1Cl`, the cell number change was -26.3%. The AC50 under setting [1] is 25.9 µM [falling, single point].
For `COC(C[C@H](O)[C@H](C)[C@@H](O)COCc1ccccc1)OC`, the cell number change worked out at 20.6%. In addition, the AC50 under setting [1] is 18.4 µM [rising, single point].
On to `Cc1cccc(N(CC(=O)NC2CC3CCC2C3)S(=O)(=O)c2ccccc2)c1` (stereo unspecified), for which the AC50 under setting [1] was 29.1 µM [falling, single point].
Regarding `Cc1nn(-c2ccc(F)cc2)c2nc(N)c(C#N)c(-c3cccs3)c12`, the AC50 is, setting by setting: under setting [2], 2.06 µM [rising, partial curve]; under setting [1], 1.84 µM [rising, partial curve].
As for `Cc1cc2c(cn1)C(CCC#N)(CCC#N)c1ccccc1-2`, the cell number change was -12.9%. Besides, under setting [1], the AC50 is 0.58 µM [falling, single point].
Turning to `CCN1CCN(C(=O)CN2C(=O)c3ccccc3S2(=O)=O)CC1`, the cell number change was -21.9%.
Turning to `CN1CCN(c2ccc(NC(=O)c3ccc(C(F)(F)F)cc3)cn2)CC1`, the cell number change stood at 24.9%.
For the compound `Cc1cc(C)c(COc2ccc(/C=N/n3c(C)n[nH]c3=S)cc2)c(C)c1`, the cell number change is -51%. Also, the AC50 under setting [2] is 20.6 µM [falling, single point]. In addition, the AC50 under setting [1] is 0.517 µM [falling, single point].
For the compound `Oc1c(Br)cc(Cl)cc1C=Nc1ccccc1Br`, the cell number change is -8.79%. Besides, the AC50 under setting [1] is 0.92 µM [falling, full curve, poor fit].
Consider `O=S(=O)(c1ccc(F)c(F)c1)N1CCCc2ccccc21`, for which the cell number change was -0.901%.
With `COc1ccc(-c2nnn(CC(=O)N(CCN3CCOCC3)C(C(=O)NC3CCCCC3)c3ccco3)n2)cc1` (stereo unspecified), the cell number change came out at 22.7%. Under setting [1], the AC50 was 0.00731 µM [rising, full curve, poor fit].
For the compound `CCN(CCCNC(=O)COc1cc(=O)n(CC)c2ccccc12)Cc1ccccc1`, the AC50 under setting [1] was 0.731 µM [falling, single point].
As for `O=C(Nc1ccnc(-c2cccnc2)n1)c1ccccc1Cl`, the cell number change was found to be 14.3%. The AC50 under setting [1] is 29.1 µM [rising, single point].
On to `CCN1CCN(C(C(=O)NC2CCCC2)c2cc3c(cc2[N+](=O)[O-])OCO3)CC1` (stereo unspecified), for which, under setting [1], the AC50 is 0.731 µM [rising, single point].
As to `COc1ccc(C(=O)NCC(=O)OCC(=O)N2CCC(C)CC2)cc1OC`, the cell number change is 27.3%. Further, under setting [1], the AC50 is 29.1 µM [falling, single point].
With `COCC1CCCN(Cc2nc(-c3ccc4c(c3)OCO4)no2)C1` (stereo unspecified), the cell number change amounted to 22.1%.
Regarding `CC(Oc1ccccc1F)C(=O)NNC(=O)c1ccc(F)c(S(=O)(=O)N2CCOCC2)c1` (stereo unspecified), the cell number change was -0.85%. Moreover, the AC50 under setting [2] is 0.13 µM [falling, full curve, poor fit]. In addition, under setting [1], the half-maximal activity concentration (AC50) is 6.51 µM [falling, single point].
`COC(=O)CN1C(=O)[C@H]2[C@@H](/C=C/c3ccccc3)N3C(=O)CN(Cc4ccccc4)C(=O)[C@@]3(C)[C@H]2C1=O`: the cell number change was found to be 23.7%.
For `Oc1cccnc1SCc1ccccc1`, the AC50 under setting [1] was 0.116 µM [rising, full curve, poor fit].
Turning to `O=C(O)Cc1ccc2oc(-c3cccnc3)nc2c1`, the cell number change was found to be 17.4%. Moreover, the AC50 under setting [2] was 2.59 µM [rising, single point]. Moreover, the AC50 under setting [1] is 6.51 µM [rising, single point].
Turning to `O=C(COc1ccc(S(=O)(=O)N2CCc3ccccc32)cc1Cl)NCc1ccccn1`, the cell number change is -43.7%. The AC50 under setting [2] was 25.9 µM [falling, single point]. Further, the AC50 under setting [1] is 1.3 µM [rising, partial curve].
With `O=C(O)c1cnn2c1C(=O)N(Cc1cccs1)CC2`, the cell number change is -33.5%. For the same compound, the AC50 under setting [2] was 5.8 µM [falling, full curve, poor fit]. Further, the AC50 under setting [1] was 5.17 µM [falling, full curve].
Turning to `Cc1ccc(SCc2cn3cccnc3n2)cc1`, the cell number change is -12.6%. Under setting [1], the AC50 is 32.6 µM [rising, single point].
As to `COc1ccc(CNC(=O)[C@H](C)N2C(=O)N3CCc4c([nH]c5ccc(OC)cc45)[C@@]3(C)C2=O)cc1`, the cell number change was 8.62%.
